This is one part of the list. Plates or batches differ in their baseline, so values are only roughly comparable.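 Hits were defined as a z-score below −3.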
Biological target: T1, YTHDF1 YTH domain (aa 365-554) (UniProt Q9BYJ9)
T1 sequence (whole entry): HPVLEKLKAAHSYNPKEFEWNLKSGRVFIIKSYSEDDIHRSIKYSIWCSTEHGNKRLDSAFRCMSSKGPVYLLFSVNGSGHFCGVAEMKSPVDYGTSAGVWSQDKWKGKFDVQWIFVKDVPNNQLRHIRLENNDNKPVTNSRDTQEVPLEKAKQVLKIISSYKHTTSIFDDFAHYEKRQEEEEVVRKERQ
Experiment: tryptophan fluorescence intensity z-score (mean); higher = higher fluorescence, less quenching (negative = binding / quenching)
Conditions: 10 µM

Row | Compound | tryptophan fluorescence intensity z-score
1 | CC(=O)Nc1c(I)c(NC(C)=O)c(I)c(C(=O)O)c1I (plate: M 13-14) | inactive: 0.374
2 | CCc1cc(C(N)=S)ccn1 (plate: M 3-4) | inactive: -0.907
3 | CC(=O)O[C@H]1CC[C@]2(C)[C@H]3CC[C@@]4(C)[C@H](c5ccoc5)OC(=O)[C@H]5O[C@]54[C@]3(C)[C@H](OC(C)=O)C[C@H]2C1(C)C [3beta-ACETOXYDEOXODIHYDROGEDUNIN] (plate: M 13-14) | inactive: 0.269
4 | Cc1ccc2c(c1)CC[C@H]1CC(=O)CC[C@]21C (plate: M 15-16) | inactive: 0.738
5 | CNCCC=C1c2ccccc2CCc2ccccc21 (plate: M 3-4) | inactive: -0.72
6 | OC[C@H]1O[C@@H](OCCc2ccc(O)cc2)[C@H](O)[C@@H](O)[C@@H]1O (plate: M 21-22) | inactive: 0.592
7 | COc1ccc(C2CC(=O)c3ccc(OC)cc3O2)cc1 (stereo not drawn) (plate: M 21-22) | inactive: -0.7
8 | C[C@H]1[C@H](NC(=O)/C(=N\OC(C)(C)C(=O)O)c2csc(N)n2)C(=O)N1S(=O)(=O)O (plate: M 9-10) | inactive: -0.41
9 | Cc1ccc(/C(=C\CN2CCCC2)c2ccccn2)cc1 (plate: M 5-6) | inactive: -0.191
10 | CC(C)(O/N=C(\C(=O)N[C@@H]1C(=O)N2C(C(=O)[O-])=C(C[n+]3ccccc3)CS[C@H]12)c1csc(N)n1)C(=O)O (plate: M 11-12) | inactive: -0.352
11 | COC1=C(O)C(=O)c2c(cc3oc(C(C)=O)c(O)c3c2O)C1=O (plate: M 19-20) | inactive: 0.39
12 | CCCc1cc(OC)c2c(c1)OCO2 (plate: M 19-20) | inactive: 0.727
13 | CC(C)(O)CC[C@@H](O)[C@](C)(O)[C@H]1CC[C@@]2(O)C3=CC(=O)[C@@H]4C[C@@H](O)[C@@H](O)C[C@]4(C)[C@H]3CC[C@]12C (plate: M 19-20) | inactive: 0.424
14 | Nc1ccc(S(=O)(=O)Nc2ccc(Cl)nn2)cc1 (plate: M 7-8) | inactive: -0.0187
15 | CC1CCC(NC(=O)N(CCCl)N=O)CC1 (stereo not drawn) (plate: M 9-10) | inactive: 0.303
16 | CC1=C2C(O)C(=O)OC3CC4C(C)(C)C(=O)C=C[C@]4(C)C(CC1)[C@]23C (stereo partly drawn) (plate: M 13-14) | inactive: 0.617
17 | Oc1ccc(O)cc1 (plate: M 9-10) | inactive: 0.704
18 | CCCCC(=O)O[C@]1(C(=O)CO)[C@@H](C)C[C@H]2[C@@H]3CCC4=CC(=O)C=C[C@]4(C)[C@@]3(F)[C@@H](O)C[C@@]21C (plate: M 1-2) | inactive: 0.381

Reprinted at random: two compounds from above
Row | Compound | tryptophan fluorescence intensity z-score
11 | COC1=C(O)C(=O)c2c(cc3oc(C(C)=O)c(O)c3c2O)C1=O (plate: M 19-20) | inactive: 0.39
3 | CC(=O)O[C@H]1CC[C@]2(C)[C@H]3CC[C@@]4(C)[C@H](c5ccoc5)OC(=O)[C@H]5O[C@]54[C@]3(C)[C@H](OC(C)=O)C[C@H]2C1(C)C [3beta-ACETOXYDEOXODIHYDROGEDUNIN] (plate: M 13-14) | inactive: 0.269
